Source: PubChem BioAssay AID743121 (NCATS, 2013)
Test: 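Genes whose silencing strengthens cell killing by camptothecin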 (primary screen). System: MDA-MB-231 cells, a human breast cancer line. Knock-down reagent: single siRNA against human genes, 20 nM siRNA (0.8 pmol per well). Duration: 120 h (drug added 48 h after transfection, read 72 h later). Treatment: camptothecin 20 nM (about EC30) for 72 h; vehicle 0.1% DMSO in parallel plates. Read-out: 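CellTiter-Glo ATP signal, scaled to control siRNA as percent viability; sensitisation given as log2 of untreated divided by camptothecin-treated viability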. Reading the numbers: log2 vehicle/camptothecin viability: higher = stronger sensitisation to camptothecin; viability with camptothecin and viability without drug: higher = more viable cells. Active means: 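Active genes have an RSA gene-level p-value below 0.001, computed from the ratios of their separate siRNAs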.
Here is a random part of about 26,000 reagents. 167 of all reagents (0.63%) were called active. 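Calls are per gene from RSA p-values that are not deposited; an individual active-marked siRNA can sensitise only weakly.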

target gene,PubChem SID,log2 vehicle/camptothecin viability,viability with camptothecin (% of control),viability without drug (% of control),call
PSMB9 (proteasome 20S subunit beta 9),SID164383397,0.0597,78.9,82.3,inactive
PSMB9 (proteasome 20S subunit beta 9),SID164383398,-0.0106,70.7,70.2,inactive
PSMB9 (proteasome 20S subunit beta 9),SID164383399,-0.182,94.7,83.5,inactive
PSMB9 (proteasome 20S subunit beta 9),SID164383402,0.0214,79.3,80.5,inactive
"VARS2 (valyl-tRNA synthetase 2, mitochondrial)",SID164493144,-0.515,98.4,68.8,inactive
"VARS2 (valyl-tRNA synthetase 2, mitochondrial)",SID164493145,0.0819,55.7,58.9,inactive
"VARS2 (valyl-tRNA synthetase 2, mitochondrial)",SID164493148,-0.303,67.8,54.9,inactive
"VARS2 (valyl-tRNA synthetase 2, mitochondrial)",SID164493151,-0.246,106,89.7,inactive
STX12 (syntaxin 12),SID164449426,0.258,42.2,50.4,inactive
STX12 (syntaxin 12),SID164449429,0.391,68,89.2,inactive
STX12 (syntaxin 12),SID164449431,-0.16,35.2,31.5,inactive
STX12 (syntaxin 12),SID164449434,-0.422,74.8,55.9,inactive
RHBDF1 (rhomboid 5 homolog 1),SID164501924,-0.349,57.7,45.3,inactive
RHBDF1 (rhomboid 5 homolog 1),SID164501926,0.972,8.19,16.1,inactive
RHBDF1 (rhomboid 5 homolog 1),SID164501929,0.291,32.7,40,inactive
TRIM46 (tripartite motif containing 46),SID164535177,0.167,55.1,61.9,inactive
TRIM46 (tripartite motif containing 46),SID164535178,-0.379,84,64.6,inactive
TRIM46 (tripartite motif containing 46),SID164535181,-0.481,56.8,40.7,inactive
TRIM46 (tripartite motif containing 46),SID164535185,0.679,34.7,55.6,inactive
EGLN2 (egl-9 family hypoxia inducible factor 2),SID164559312,-0.302,95,77.1,inactive
EGLN2 (egl-9 family hypoxia inducible factor 2),SID164559316,-0.354,72.4,56.6,inactive
EGLN2 (egl-9 family hypoxia inducible factor 2),SID164559318,-0.294,84.2,68.7,inactive
AZIN2 (antizyme inhibitor 2),SID164559861,0.195,67.6,77.4,inactive
AZIN2 (antizyme inhibitor 2),SID164559863,-0.189,122,107,inactive
AZIN2 (antizyme inhibitor 2),SID164559864,0.303,62.8,77.4,inactive
AZIN2 (antizyme inhibitor 2),SID164559867,-0.511,65.5,45.9,inactive
CYP46A1 (cytochrome P450 family 46 subfamily A member 1),SID164413812,-0.147,96.2,86.8,inactive
CYP46A1 (cytochrome P450 family 46 subfamily A member 1),SID164413816,-0.494,95.1,67.5,inactive
CYP46A1 (cytochrome P450 family 46 subfamily A member 1),SID164413817,-0.265,98.4,81.9,inactive
BTNL2 (butyrophilin like 2),SID164489248,0.339,54,68.3,inactive
BTNL2 (butyrophilin like 2),SID164489251,-0.11,75.3,69.7,inactive
BTNL2 (butyrophilin like 2),SID164489252,-0.311,61.4,49.5,inactive
HNF4G (hepatocyte nuclear factor 4 gamma),SID164369400,-0.127,104,95.1,inactive
HNF4G (hepatocyte nuclear factor 4 gamma),SID164369402,0.632,50.9,78.9,inactive
HNF4G (hepatocyte nuclear factor 4 gamma),SID164369403,-0.335,81,64.2,inactive
HNF4G (hepatocyte nuclear factor 4 gamma),SID164369404,-0.644,47.4,30.3,inactive
RP1 (RP1 axonemal microtubule associated),SID164385725,-0.122,115,106,inactive
RP1 (RP1 axonemal microtubule associated),SID164385726,0.00843,56.9,57.2,inactive
RP1 (RP1 axonemal microtubule associated),SID164385727,-0.0958,104,97.1,inactive
RP1 (RP1 axonemal microtubule associated),SID164385728,-0.0235,51.5,50.7,inactive
MAPRE1 (microtubule associated protein RP/EB family member 1),SID164444492,-0.277,107,88.6,inactive
MAPRE1 (microtubule associated protein RP/EB family member 1),SID164444494,-0.412,90.1,67.7,inactive
MAPRE1 (microtubule associated protein RP/EB family member 1),SID164444495,0.0436,83.5,86.1,inactive
DSPP (dentin sialophosphoprotein),SID164362272,-0.199,78.2,68.1,inactive
DSPP (dentin sialophosphoprotein),SID164362274,0.37,23.9,30.9,inactive
DSPP (dentin sialophosphoprotein),SID164362275,-0.118,60.9,56.1,inactive
DSPP (dentin sialophosphoprotein),SID164362276,-0.462,41.2,29.9,inactive
SLC8B1,SID164534893,-0.0406,109,106,inactive
SLC8B1,SID164534894,-0.193,81,70.8,inactive
SLC8B1,SID164534895,-0.207,57.9,50.2,inactive
SLC8B1,SID164534898,0.14,57.5,63.4,inactive
COL8A1 (collagen type VIII alpha 1 chain),SID164359182,-0.593,66.7,44.2,inactive
COL8A1 (collagen type VIII alpha 1 chain),SID164359186,-0.129,91.4,83.5,inactive
COL8A1 (collagen type VIII alpha 1 chain),SID164359188,0.0554,33.9,35.2,inactive
TRPM5,SID164468153,-0.462,57.1,41.5,inactive
TRPM5,SID164468155,-0.307,134,109,inactive
TRPM5,SID164468156,-0.206,81.9,71,inactive
TRPM5,SID164468158,-0.0225,97.7,96.2,inactive
ILF2 (interleukin enhancer binding factor 2),SID164371498,0.26,47.5,56.9,inactive
ILF2 (interleukin enhancer binding factor 2),SID164371499,-0.162,72.7,65,inactive
ILF2 (interleukin enhancer binding factor 2),SID164371500,-0.67,60.5,38,inactive
ILF2 (interleukin enhancer binding factor 2),SID164371501,-0.165,91.2,81.3,inactive
PARP4 (poly(ADP-ribose) polymerase family member 4),SID164352528,-0.361,47.6,37,inactive
PARP4 (poly(ADP-ribose) polymerase family member 4),SID164352530,-0.455,119,86.5,inactive
PARP4 (poly(ADP-ribose) polymerase family member 4),SID164352531,0.0201,116,117,inactive
PARP4 (poly(ADP-ribose) polymerase family member 4),SID164352532,-0.275,71.7,59.2,inactive
TXNDC12 (thioredoxin domain containing 12),SID164471551,0.437,27.1,36.8,inactive
TXNDC12 (thioredoxin domain containing 12),SID164471552,-0.366,52.1,40.4,inactive
TXNDC12 (thioredoxin domain containing 12),SID164471555,-0.32,60,48.1,inactive
